These results are taken from publication PMC9656801 (Molecules, 2022).

Non-standard residues stand in square brackets, D forms with d. No end group written: not given here. *: point of attachment. NMeF = CN[C@@H](Cc1ccccc1)C(=O)O; dNMeF = CN[C@H](Cc1ccccc1)C(=O)O; NMeA = CN[C@@H](C)C(=O)O; Bn = c1ccc(C*)cc1; Sar = CNCC(=O)O

The series in a line: general procedure: Fmoc solid-phase peptide synthesis; 2-chlorotrityl chloride resin (2-CTC), 0.8 mmol/g loading; HBTU/DIPEA (primary amines), HATU/DIPEA (N-methyl amino acids); cyclisation HBTU. Conditions: for final HPLC purity / cyclisation yield: cyclisation step; for final HPLC purity / crude HPLC purity: 220 nm; for final HPLC purity / cyclisation yield / crude HPLC purity: trifluoroacetate salts (linear peptides); for cyclisation yield: on linear precursor; for crude yield / crude HPLC purity: whole synthesis, scale of the general procedure 500 mg resin; for crude yield: TFA salt.

On to cyclo(ALF[Sar]), for which the “final HPLC purity” value amounted to 97.6% and the cyclisation yield is recorded as 40%.

With cyclo([NMeA]L[NMeF]G), the “final HPLC purity” value amounted to 95.8% and the cyclisation yield was 47%.

As for cyclo(AL[dNMeF]G), the “final HPLC purity” value worked out at 98.7% and the cyclisation yield came out at 66%.

In the case of AL[dF]G, the crude yield came out at 100%.

[NMeA]F[NMeF]G: the “crude HPLC purity” value was found to be 98% and the crude yield was 97%.

As to cyclo(AL[NMeF][Sar]), the “final HPLC purity” value is 92.8% and the cyclisation yield is on record as 33%.

For the substance [NMeA]LF[Sar], the “crude HPLC purity” value turned out to be 94% and the crude yield is listed as 44%.

Take Cyclo [Ala-Leu-D-Phe-N-MeGly]: the “final HPLC purity” value was determined as 95.2% and the cyclisation yield was 76%.

On to AL[dF][Sar], for which the “crude HPLC purity” value is recorded as 90% and the crude yield was found to be 62%.

AL[NMeF][Sar]: the “crude HPLC purity” value came out at 97% and the crude yield came out at 100%.

Consider cyclo([dNMeF]AF[Sar]), for which the “final HPLC purity” value worked out at 91.9% and the cyclisation yield came to 17%.

On to cyclo(F[Sar]C(Bn)[Sar]), for which the “final HPLC purity” value is listed as 94.3% and the cyclisation yield came to 54%.

For cyclo([NMeA]L[dF]G), the “final HPLC purity” value was found to be 91.7% and the cyclisation yield was 67%.

In the case of cyclo([NMeA]F[NMeF]G), the “final HPLC purity” value is 95.6% and the cyclisation yield is reported as 86%.

For [NMeA]L[dF]G, the “crude HPLC purity” value is listed as 96% and the crude yield is listed as 100%.

As for F[Sar]C(Bn)[Sar], the “crude HPLC purity” value worked out at 79% and the crude yield turned out to be 75%.

For the substance cyclo([NMeA]LF[Sar]), the “final HPLC purity” value was 95.5% and the cyclisation yield is recorded as 38%.

[NMeA]LFG: the “crude HPLC purity” value is recorded as 93% and the crude yield was 100%.

cyclo([NMeA]LFG): the “final HPLC purity” value was 90.7% and the cyclisation yield is 48%.

For the substance [dNMeF]AF[Sar], the “crude HPLC purity” value is recorded as 99% and the crude yield stood at 99%.

cyclo(AL[dF]G): the “final HPLC purity” value is recorded as 90.1% and the cyclisation yield was 5%.

Consider [NMeA]L[NMeF]G, for which the “crude HPLC purity” value is 91% and the crude yield is on record as 100%.

Regarding ALF[Sar], the “crude HPLC purity” value came to 94% and the crude yield was 60%.

With AL[dNMeF]G, the “crude HPLC purity” value is 99% and the crude yield is recorded as 100%.
